Laboratory results as given in US20200038399A1, “FORMULATIONS, METHODS, KIT, AND DOSAGE FORMS FOR TREATING BACTERIAL INFECTION” (Motif BioSciences Inc., priority 2016, published 2020).
The name of at least one read-out is uncertain. Some compounds share one wording; it may come from a single statement.

Columns and labels:
Assay in all cases: checkerboard synergy assay with iclaprim
[1] = test system: Staphylococcus aureus ATCC 25923; type: cell-based; settings: antibiotic in combination with iclaprim; S. aureus 25923
Description: (§1) The synergistic potential of iclaprim against Gram-positive and Gram-negative bacteria was determined using the checkerboard assay as described in Eliopoulos GM and Moellering, Jr. RC (1991), Antimicrobial combinations, pp. 432-492, in V. Lorian (ed.), Antibiotics in laboratory medicine, 3rd Ed., The Williams & Wilkins Co., Baltimore, the entire disclosure of which is herein incorporated by reference, allowing multiple test concentrations of iclaprim to be assayed in the presence of various concentrations of the other antibiotic in microtiter plates. The same growth media and conditions were used as described in 3.2 below.
(§2) Two different dilutions were used for iclaprim depending on the MIC determined for the bacterium. […] Iclaprim and the other antibiotic being tested were also dispensed alone in the last row and in the last column, respectively, as controls.
(§3) The Fractional Inhibitory Concentrations (FIC) for each added agent were calculated and used to determine the sum of FIC (ΣFIC) indicative of the synergistic potential of a given combination as described in Veyssier P. (1999), Inhibiteurs de la dihydrofolate reductase, nitrohétérocycles (furanes) et 8-hydroxyquinoleines, pp. 995-1027, in A. Bryskier (ed.), Antibiotiques agents antibatériens et antifongiques, 1st Ed., Ellipses Edition Marketing SA, Paris, the entire disclosure of which is herein incorporated by reference. Synergy was defined whereby the ΣFIC was <0.5, indifference (no synergy nor antagonism) whereby ΣFIC was ≥0.5 but ≤4, and antagonism whereby ΣFIC was >4. Additivity as a special form of indifference was defined whereby the ΣFIC was ≥0.5 but <1, for example as described in Stevens, D L et al. (1998), In vitro antimicrobial effects of various combinations of penicillin and clindamycin against four strains of Streptococcus pyogenes, J. Antimicrob. Chemother. 42: 1266-1268, the entire disclosure of which is herein incorporated by reference.

[2] = test system: Streptococcus pneumoniae ATCC 49619; type: cell-based; settings: antibiotic in combination with iclaprim; S. pneumoniae 49619
Description: as §1, §2, §3

[3] = test system: S. aureus 101; type: cell-based, Staphylococcus aureus; settings: antibiotic in combination with iclaprim
Description: as §1, §2
(§4) The Fractional Inhibitory Concentrations (FIC) for each added agent were calculated and used to determine the sum of FIC (ΣFIC) indicative of the synergistic potential of a given combination as described in Veyssier P. (1999), Inhibiteurs de la dihydrofolate reductase, nitrohétérocycles (furanes) et 8-hydroxyquinoleines, pp. 995-1027, in A. Bryskier (ed.), Antibiotiques agents antibatériens et antifongiques, 1st Ed., Ellipses Edition Marketing SA, Paris, the entire disclosure of which is herein incorporated by reference. […]

[4] = test system: S. pneumoniae 1/1; type: cell-based, Streptococcus pneumoniae; settings: antibiotic in combination with iclaprim
Description: as §1, §2, §4

Structure (SMILES): C=C(NC(=O)C(=C)NC(=O)c1csc(C2=N[C@@H]3c4csc(n4)[C@H]4NC(=O)c5csc(n5)[C@H]([C@](C)(O)[C@@H](C)O)NC(=O)[C@H]5CSC(=N5)/C(=C/C)NC(=O)[C@H]([C@@H](C)O)NC(=O)c5csc(n5)[C@]3(CC2)NC(=O)[C@H](C)NC(=O)C(=C)NC(=O)[C@H](C)NC(=O)[C@H]([C@@H](C)CC)N[C@@H]2C=Cc3c([C@H](C)O)cc(nc3[C@H]2O)C(=O)O[C@@H]4C)n1)C(N)=O [Thiostrepton]
- Con (Conclusion) [1]: Ind (Indifference (Ind))
- Con (Conclusion) [2]: Ind (Indifference (Ind))
- Con (Conclusion) [3]: Ind (Indifference (Ind))
- Con (Conclusion) [4]: Ind (Indifference (Ind))

Structure (SMILES): CN[C@H](CC(C)C)C(=O)N[C@H]1C(=O)N[C@@H](CC(N)=O)C(=O)N[C@H]2C(=O)N[C@H]3C(=O)N[C@H](C(=O)N[C@H](C(=O)O)c4cc(O)cc(O)c4-c4cc3ccc4O)[C@H](O)c3ccc(c(Cl)c3)Oc3cc2cc(c3O[C@@H]2O[C@H](CO)[C@@H](O)[C@H](O)[C@H]2O[C@H]2C[C@](C)(N)[C@H](O)[C@H](C)O2)Oc2ccc(cc2Cl)[C@H]1O [Vancomycin]
- Con (Conclusion) [1]: Ind (Indifference (Ind))
- Con (Conclusion) [2]: Ind (Indifference (Ind))
- Con (Conclusion) [3]: Ad (Additivity (Ad))
- Con (Conclusion) [4]: Ad (Additivity (Ad))
